Screen size: about 200,000 compounds; about 25 (0.01%) were called active. Inconclusive means that the source gave no clear call. Such entries were picked first, then a sample of the others. Calls come from the whole dose curve; as a rule, active = well fitted inhibition curve with a large enough effect in the signal ratio, with a control signal flat (not every such curve was filed as active); inconclusive = small, poorly fitted or top-dose-only effect, or effect the other way, or a change in a side signal; inactive = flat fitted curve, though single readings scatter; the % refers to the signal ratio. A potency beside an inconclusive call is a rough fit, not a confirmed value.
Test: qHTS Assay for Modulators of Lamin A Splicing
Conditions: HeLa LMNA splicing GFP/RFP minigene ratio, 48 h; ratio change, negative = inhibition: at 46.1 µM (top of the series) unless noted
How it was run: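 Read-out is the ratio of GFP to DsRed2 object intensity, acquired by 488 nm laser-scanning cytometry on HeLa lamin A-EGFP minigene reporter cells. Compound incubation 48 hrs at 37 °C in Opti-MEM with 2% FBS; DMSO 0.5% final.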
% is set by controls: 0 for no effect and ±100 for the full control effect; potency is the fitted concentration of half-maximal effect.

Row | SMILES | ratio change, negative = inhibition | Potency
1 | CC(C)CC(=O)NC(=S)NNC(=O)c1ccc(NC(=O)C2CCCCC2)cc1 | inconclusive: -48% | 
2 | COc1cc2cc3c(N)c(C(=O)Nc4sc(C)c(C)c4C#N)sc3nc2cc1OC | inconclusive: 3.61% | 
3 | Cc1nc2ccccc2c(=O)n1-c1ccc(NC(=O)c2ccccc2[N+](=O)[O-])cc1 | inactive: 20.4% [at 46 µM] | 
4 | CCOC(=O)/C(=C/c1c2ccccc2cc2ccccc12)NC(=O)c1ccccc1 | inconclusive: 2.96% [at 0.0737 µM] | 
5 | O=C(COC(=O)/C=C/c1ccc2c(c1)OCO2)Nc1ccccc1 | inconclusive: -6.67% [at 46 µM] | 
6 | COc1ccccc1NC(=O)c1ccc(-n2cccn2)c([N+](=O)[O-])c1 | inconclusive: -0.523% [at 46 µM] | 
7 | CC(=O)c1ccccc1NC(=O)Cn1c(=O)cnc2ccccc21 | inconclusive: -14.9% | 
8 | O=c1c(F)cn(C2CCCO2)c(=O)n1Cc1ccc(Cl)cc1 (stereo unspecified) | inconclusive: 6.7% [at 46 µM] | 
9 | O=C(Nc1ccccc1Br)C(=O)N1CCCC1 | inactive: -5.9% | 
10 | O=C(O)c1cc(S(=O)(=O)Nc2ccccc2C(=O)O)ccc1O | inactive: 2.38% | 
11 | CC(C)c1onc(C(=O)N2CCN(Cc3ccccc3)CC2)c1[N+](=O)[O-] | inconclusive: 10.9% | 
12 | Cc1c(NC(=O)C2CCCO2)cccc1[N+](=O)[O-] (stereo unspecified) | inactive: -7.47% | 
13 | O=S(=O)(Nc1ccc2cn[nH]c2c1)c1ccc(Cl)s1 | inconclusive: -18.8% [at 46 µM] | 
14 | Cc1cc(=O)[nH]c(SCC(=O)NC(C)C2CC3CCC2C3)c1C#N (stereo unspecified) |  | inconclusive: 14.1 µM [inhibitor, single point]
15 | Cc1ccc(C)c(N2CCN(C(=O)Cn3cnc4onc(-c5ccc(F)cc5)c4c3=O)CC2)c1 | inactive: 2.47% [at 46 µM] | 
16 | COc1ccccc1CNC(=O)C(=O)NCC(c1cccs1)S(=O)(=O)c1ccccc1 (stereo unspecified) | inconclusive: 13% [at 46 µM] | 
17 | Cc1cccc(C(=O)Nc2nnc(S(=O)(=O)N(C)Cc3ccccc3)s2)c1 | inconclusive: 1.92% [at 46 µM] | 
18 | CC(C)C(NC(=O)c1ccc(C(C)(C)C)cc1)C(=O)Nc1cccc(S(N)(=O)=O)c1 (stereo unspecified) | inconclusive: -37.6% [at 46 µM] | 
19 | COc1ccc(CCNC(=O)CN(c2cc([N+](=O)[O-])ccc2OC)S(C)(=O)=O)cc1 | inconclusive: 5.95% [at 46 µM] | 
20 | O=C(NCCCO)NC12CC3CC(CC(C3)C1)C2 | inconclusive: -6.01% | 
21 | COc1cc(C(NC(C)=O)NC(C)=O)ccc1OCc1ccccc1 | inconclusive: -9.45% [at 46 µM] | 
22 | C1CCc2nnnn2CC1 | inconclusive: -9.28% | 

Row | SMILES | ratio change, negative = inhibition | Potency
23 | Cn1cnnc1SC1CCCCC1NS(=O)(=O)c1ccccc1 (stereo unspecified) | inactive: -5.95% | 
24 | CC(=O)Nc1ccc(-c2cc(NC(C)=O)n(-c3ccccc3)n2)cc1 | inactive: 9.17% | 
25 | NS(=O)(=O)c1ccc(NC(=O)C2(c3ccccc3)CCCC2)cc1 | inconclusive: 4.48% [at 46 µM] | 
26 | COC(=O)c1c(NC(=O)COC(=O)c2ccc(C)s2)sc2c1CCCCC2 | inconclusive: -2.69% | 
27 | Cc1ccc2nc(NC(=O)CSc3[nH]c(=O)ncc3C)sc2c1 | inconclusive: 3.13% [at 46 µM] | 
28 | CC12CC3(C)CC(C)(C1)CC(C(=O)Nc1nn[nH]n1)(C2)C3 | inactive: 10.7% | 
29 | CCCCNC(=O)c1cccc(NC(=O)c2nsc3ccccc23)c1 | inconclusive: -4.19% [at 46 µM] | 
30 | CCc1ccc(C2C(C(=O)Nc3ccccc3OC)=C(C)Nc3c(C(=O)Nc4ccc(C)cc4)cnn32)cc1 (stereo unspecified) | inactive: 3.86% [at 46 µM] | 
31 | O=S(=O)(c1ccccc1Cl)N1CCC(O)(c2ccc3c(c2)OCO3)CC1 | inconclusive: -41.3% | 
32 | COc1cccc(CNC(=O)c2cnc3c(-c4ccc(F)cc4)c(C)nn3c2C)c1 | inactive: 11.3% [at 46 µM] | 
33 | COc1ccc(Sc2nc(-c3ccccn3)ncc2OC)cc1 | inconclusive: -17.4% [at 46 µM] | 
34 | COc1ccc(CC(=O)N2CCc3cc(OC)c(OC)cc3C2COc2ccc(F)cc2)cc1 (stereo unspecified) | inconclusive: -37.8% [at 46 µM] | 
35 | CSc1nnc(-c2ccco2)c(-c2ccco2)n1 | inactive: -4.84% | 
36 | CC(=O)N1CCN(C(=O)c2ccc(Oc3ccccc3)cc2)CC1 | inconclusive: 18.6% [at 46 µM] | 
37 | O=C(c1ccc(F)cc1)N1CCc2c([nH]c3ccccc23)C1c1ccc(Cl)cc1 (stereo unspecified) | inconclusive: -30.2% [at 46 µM] | 
38 | CCOc1cccc(C(=O)Nc2cccc(C(C)=O)c2)c1 | inconclusive: 5.16% | 
39 | CCNc1nc(Oc2ccc(C(=O)OCC)cc2)nc(SC)n1 | inconclusive: 10.8% | 
40 | O=C(CC12CCC(CC1)C2)NCc1ccc2c(c1)OCO2 | inactive: -6.03% | 
41 | CC(=O)c1c(C)[nH]c(C(=O)OCc2ccccc2)c1C | inconclusive: -49.2% | 
42 | CN(C)Cc1ccccc1-c1cncnc1Nc1ccc(F)cc1 | inactive: 3.24% | 
43 | CCCSCCCNC(=O)c1ccc(C)c(NC(=O)c2nsc3ccccc23)c1 | inconclusive: -6% [at 46 µM] | 
44 | CCNc1nc(NCC)n2c(SCc3nc4ccccc4c(=O)[nH]3)nnc2n1 | inactive: -11.2% | 

Row | SMILES | ratio change, negative = inhibition | Potency
45 | Cn1c(SCC(=O)NNC(=O)c2ccc(Br)cc2)nnc1-c1cccnc1 | inconclusive: 4.45% [at 46 µM] | 
46 | COc1nccnc1NS(=O)(=O)c1ccc(N)cc1 | inconclusive: -10.5% | 
47 | CCc1nnc(NC(=O)c2sc3nc4cc(C)ccc4cc3c2N)s1 |  | inconclusive: 35.5 µM [cytotoxic, single point]
48 | Cc1cc(Nc2ccc(Br)cc2)nc(C)n1 | inconclusive: -4.47% [at 46 µM] | 
49 | CCC1CN(C(=O)N2CCC(C(=O)NCCc3ccc(OC)cc3OC)CC2)c2cc(C)ccc2O1 (stereo unspecified) | inactive: 2.37% [at 46 µM] | 
50 | Cc1cc(NC(=O)CCC(=O)N(CC(=O)NCC2CCCO2)c2ccc3c(c2)OCCO3)no1 (stereo unspecified) | inactive: -3.58% | 
51 | C=CCn1cc(C(=O)NCC2CCCO2)c(=O)c2cc(S(=O)(=O)N3CCCCCC3)ccc21 (stereo unspecified) | inactive: 5.89% | 
52 | CNc1nc(Sc2cccc(C(F)(F)F)c2)cc(C(F)(F)F)n1 | inconclusive: 16.3% | 
53 | Cc1noc(C)c1-c1cc(Nc2ccccc2)ncn1 | inconclusive: -18.3% | 
54 | Cc1cc(O)cc(C)c1Cl | inconclusive: -2.22% | 
55 | Cn1cnc(S(=O)(=O)Nc2cc(C(F)(F)F)ccc2N2CCOCC2)c1 | inconclusive: 23.1% [at 46 µM] | 
56 | CC(NS(=O)(=O)c1ccc(Cl)cc1)C(=O)NCc1ccco1 (stereo unspecified) | inactive: -1.37% | 
57 | COc1ccc(S(=O)(=O)Nc2cc(C(=O)NCCC(C)C)ccc2N2CCOCC2)cc1 | inconclusive: 7.43% | 
58 | Cc1onc(C(=O)NC(C)c2ccccc2)c1[N+](=O)[O-] (stereo unspecified) | inconclusive: 32.2% [at 46 µM] | 
59 | CCOCCc1nn2c(=O)cc(COC(=O)c3ccccc3OC)nc2s1 | inconclusive: 6.84% [at 46 µM] | 
60 | Cc1ccc(C(C(=O)NC2CCCC2)N(C(=O)c2csnn2)C2CCCC2)o1 (stereo unspecified) | inactive: 6.88% | 
61 | CCOC(=O)CSc1nc2ccccc2c(=O)n1CCCCCC(=O)NCc1ccco1 | inconclusive: 12.4% | 
62 | CS(=O)(=O)N1CCC(C(=O)N2CCN(c3ccc(F)cc3)CC2)CC1 | inactive: 6.48% [at 46 µM] | 
63 | CCOc1ccccc1CNC(=O)c1cc2c(=O)n(Cc3cccnc3)ccc2nc1C | inactive: 6.29% [at 46 µM] | 
64 | COc1ccc(/C=C2/SC(=O)NC2=O)cc1 | inactive: 23.2% [at 46 µM] | 
65 | CC(=O)c1ccc(NC(=O)CSC2=Nc3ccccc3N=C(c3ccc(F)cc3)C2)cc1 | inactive: -18.1% [at 46 µM] | 
66 | c1ccc(CNc2ccc3ccccc3n2)nc1 | inconclusive: 4.97% | 

Row | SMILES | ratio change, negative = inhibition | Potency
67 | O=C(/C=C/c1ccccc1)c1cc(Br)ccc(=O)c1O |  | inconclusive: 35.5 µM [cytotoxic, single point]
68 | COC(=O)CCC(=O)CN |  | inconclusive: 0.0316 µM [activator, full curve, poor fit]
69 | COc1ccc(Cl)cc1NCc1nnc2n1CCCCC2 | inconclusive: 12.3% [at 46 µM] | 
70 | COCC(=O)NC1CCN(CC(=O)Nc2ccc(OC)cc2[N+](=O)[O-])CC1 | inactive: 6.49% [at 0.0737 µM] | 
71 | Cc1cccc(C(=O)Nc2cc3c(cc2C)n(C)c(=O)n3C)c1 | inactive: 24.6% [at 46 µM] | 
72 | Cc1ccc(Sc2ccc(NC(=O)CCl)cc2)c(C)c1 | inactive: -8.42% | 
73 | COCc1nc2ccccc2n1Cc1ccc(C(C)(C)C)cc1 | inactive: 16.7% [at 46 µM] | 
74 | N/C(=N\OC(=O)COc1ccc2ccccc2c1)c1ccccn1 | inconclusive: 6.81% [at 0.0737 µM] | 
75 | CCOc1ccccc1NC(=O)/C(C#N)=C/c1c(C)nn(-c2ccccc2)c1Cl | inconclusive: -7.15% | 
76 | Cn1c(=O)c2nc(SCC(=O)Nc3ccc(OC(F)(F)F)cc3)n(C)c2n(C)c1=O | inconclusive: 24.6% [at 46 µM] | 
77 | Cc1nn(-c2ccccc2)c(Cl)c1/C=N/N1CCN(c2ccccn2)CC1 | inconclusive: -6.44% [at 46 µM] | 
78 | CC(/C=N/NC(=O)CSc1nc(C)cc(C)n1)=C\c1ccccc1 |  | inconclusive: 35.5 µM [falling, single point]
79 | CC1(C)C2C/C(=N\O)C(C)(/[N+]([O-])=C/c3cccc([N+](=O)[O-])c3)CC21 (stereo unspecified) | inconclusive: -19.2% [at 46 µM] | 
80 | CCN(CC)C(=O)c1ccc2c(=O)n(CCOC)c(=S)[nH]c2c1 | inactive: -0.348% | 
81 | CC1CCCN(CCCNC(=O)c2cc(Sc3ccc(F)cc3)nc3ccccc23)C1 (stereo unspecified) |  | inconclusive: 17.8 µM [inhibitor, single point]
82 | COC(=O)c1c(C)cc(OC)cc1O | inconclusive: 30% | 
83 | CCOC(=O)N1CCN(C2=CC(=O)OC23CCCCC3)CC1 | inactive: 8.3% | 
84 | O=C(Cc1ccccc1)Nc1ccccc1Oc1ccccc1 | inconclusive: 2.26% | 
85 | CNC(=O)CN(c1cc(OCCOC)c(Cl)cc1Cl)S(=O)(=O)c1ccccc1 | inconclusive: 3.05% [at 46 µM] | 
86 | O=C(NC1CCCCCCC1)c1ccc2c(c1)N(Cc1ccc(F)cc1)C(=O)CS2=O (stereo unspecified) | inconclusive: 15% | 

Reference: PubChem BioAssay AID1487 (National Center for Advancing Translational Sciences (NCATS), 2009)
